Primary screen of a compound library

Protein sequences, listed by entry. Tags and fused reporters are not part of them.
UniProt E9BF75, entry or part of it: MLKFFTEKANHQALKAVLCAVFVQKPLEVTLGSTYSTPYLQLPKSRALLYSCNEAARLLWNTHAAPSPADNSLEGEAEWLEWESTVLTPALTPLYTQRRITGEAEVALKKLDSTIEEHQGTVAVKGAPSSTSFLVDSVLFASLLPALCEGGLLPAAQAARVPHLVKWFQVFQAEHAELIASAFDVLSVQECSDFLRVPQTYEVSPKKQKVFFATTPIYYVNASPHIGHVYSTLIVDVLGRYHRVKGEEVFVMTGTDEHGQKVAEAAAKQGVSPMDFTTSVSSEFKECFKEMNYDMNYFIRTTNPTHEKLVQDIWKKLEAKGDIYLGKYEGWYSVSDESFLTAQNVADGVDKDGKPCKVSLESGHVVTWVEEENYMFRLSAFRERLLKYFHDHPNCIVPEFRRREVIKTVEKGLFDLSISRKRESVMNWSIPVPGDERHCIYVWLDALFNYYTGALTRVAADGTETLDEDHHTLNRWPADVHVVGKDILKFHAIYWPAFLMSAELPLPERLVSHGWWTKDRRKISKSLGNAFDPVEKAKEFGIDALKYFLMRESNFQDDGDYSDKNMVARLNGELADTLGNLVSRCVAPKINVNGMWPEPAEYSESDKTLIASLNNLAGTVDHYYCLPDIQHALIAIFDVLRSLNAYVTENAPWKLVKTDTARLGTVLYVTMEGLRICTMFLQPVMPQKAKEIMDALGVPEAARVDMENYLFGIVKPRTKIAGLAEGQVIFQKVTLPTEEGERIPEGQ

Data taken from ChEMBL document CHEMBL3988442, “University of Dundee, Small-Polar-MMV Screening Library” (2021).

Results are percentages, as filed. The controls that fix the scale are not given in the record; negative values are as filed. The compounds are a random part of those screened.

Mtb heat-shock: 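Assay on Mycobacterium tuberculosis, filed only as a heat shock assay from Cornell; the read-out is not stated. The concentration is filed as 10 mM, unlikely as a test dose, so the dose is not known. Higher reads as stronger inhibition (inferred: compounds with an IC50 in retests scored well above the rest). About 69,000 compounds were tested under these conditions; 1.4% (about 930) showed 50% or more at least once.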
LdMetRS: 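Methionyl-tRNA synthetase (putative), Leishmania donovani (UniProt E9BF75). Primary screen of methionyl-tRNA synthetase; the read-out is not stated. The test concentration is not given. The values are filed as inhibition. Size under these conditions: about 68,000 compounds, about 24 of them at 50% or above in at least one test.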
Mtb growth Cornell: 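Whole-cell assay for inhibitors of Mycobacterium tuberculosis growth, labelled Cornell in the record; the read-out is not stated. The concentration is filed as 10 mM, unlikely as a test dose, so the dose is not known. Higher means stronger inhibition (inferred from two other growth screens of the library). Size under these conditions: about 53,000 compounds, about 900 of them at 50% or above in at least one test.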

* Cc1cc(C)nc(NC2CCC(=O)N(C)C2)n1 (stereo not shown) | Mtb heat-shock: -3.741%; LdMetRS: 20.92%; Mtb growth Cornell: 4.15%
* CSc1ncccc1C(=O)NCc1ccc(N(C)C)cc1 | Mtb heat-shock: -14.68%; LdMetRS: -4.722%; Mtb growth Cornell: -49.42%
* COCCn1cncc1CN1CCC(C(C)=O)(c2ccccc2)CC1 | Mtb heat-shock: -3.844%; LdMetRS: 10.28%; Mtb growth Cornell: 12.43%
* CN1CCc2ccc(NCc3cscn3)cc2C1=O | Mtb heat-shock: -8.296%; LdMetRS: 16.77%; Mtb growth Cornell: -44.82%
* O=C(c1ccccn1)N1CCN(c2ccc(-c3cccnc3)nn2)CC1 | Mtb heat-shock: -23.12%; LdMetRS: 1.684%; Mtb growth Cornell: 18.26%
* Cc1n[nH]c(C)c1CNCC(O)c1cccc(Cl)c1 (stereo not shown) | LdMetRS: 12.64%
* O=C1COC2(CCN(CC3CC3)CC2)CN1c1ccccc1 | LdMetRS: 11.5%
* O=C(Cc1ccsc1)N1CCCC(c2cc(C(F)F)n3ncnc3n2)C1 (stereo not shown) | Mtb heat-shock: -15.13%; LdMetRS: -1.562%; Mtb growth Cornell: -21.43%
* CN(c1ncnc2c1cnn2C)C1CCCN(c2cccnn2)C1 (stereo not shown) | Mtb heat-shock: -9.124%; LdMetRS: 23.75%; Mtb growth Cornell: 23.8%
* CC(C)n1ccnc1CN1CCCN(C(=O)c2cccnc2O)CC1 | Mtb heat-shock: 21.55%; LdMetRS: 6.748%; Mtb growth Cornell: -8.218%
* O=C(Cc1ccon1)N1CCc2cc(Br)sc2C1 | Mtb heat-shock: -39.3%; LdMetRS: 11.91%; Mtb growth Cornell: 19.17%
* Cc1cccc(-c2nc(CN3CCc4cncnc4C3)no2)c1 | Mtb heat-shock: -10.39%; LdMetRS: 17.47%
* Cc1cc(S(=O)(=O)N(C)CC(N)=O)ccc1Br | Mtb heat-shock: -20.93%; LdMetRS: 8.871%
* O=C(N1CCOCC1)N1CCc2ncnc(Oc3cccnc3)c2CC1.O=C(O)C(F)(F)F | Mtb heat-shock: -19.28%; Mtb growth Cornell: 13.74%
* Cc1cc(C)c(Cn2cncn2)cc1CN1CC[C@H]2CC[C@@H](C1)N2 | LdMetRS: -0.9639%
* CC(Sc1n[nH]c(-c2ccc3c(c2)CCC3)n1)C(N)=O (stereo not shown) | Mtb heat-shock: 5.334%; LdMetRS: 10.44%; Mtb growth Cornell: 3.316%
* c1ccc(N2CCCC3(CCN(Cc4nccs4)C3)C2)nc1 (stereo not shown) | Mtb heat-shock: -12.27%; LdMetRS: 9.091%; Mtb growth Cornell: 21.59%
* CC(CC#N)N(C)Cc1ccc(F)cc1C#N (stereo not shown) | Mtb heat-shock: -17.12%; LdMetRS: 3.136%; Mtb growth Cornell: -22.67%
* CC(C)(NC(=O)c1ccc(-c2ccc(F)cc2)s1)C(N)=O | Mtb heat-shock: -0.4631%; LdMetRS: 8.873%; Mtb growth Cornell: 25.54%

Some entries from above, unchanged:

| structure | Mtb heat-shock | LdMetRS | Mtb growth Cornell |
|---|---|---|---|
| `CC(C)n1ccnc1CN1CCCN(C(=O)c2cccnc2O)CC1` | 21.55 | 6.748 | -8.218 |
| `CN1CCc2ccc(NCc3cscn3)cc2C1=O` | -8.296 | 16.77 | -44.82 |